# Some of these results come from one statement about several compounds together.
# How the values were obtained:
# [1] = tested on: erythropoietin production in Hep3B cells; assay: Promotion of erythropoietin production in Hep3B cells under normal oxygen (ELISA); assay type: cell-based, human; conditions: compound 3 μM, normal oxygen (20% O2), 24 hours
# [2] = tested on: ATP production in Hep3B cells; assay: ATP production in Hep3B cells; assay type: cell-based, human; conditions: at least in 24 hours
# Method: The Hep3B cells were seeded at 1×10^4 cells/well to a 24-well cell culture plate and then cultured under normal oxygen (20% O2) for 24 hours. Each of 36 types of compounds (compounds #1 to 15, 17 to 31, and 34 to 39) was mixed at a concentration of 10 μM into RPMI1640 common medium 1. After further culture under normal oxygen (20% […]) for 3 hours, 6 hours, or 24 hours, the concentration of ATP produced in the medium was measured using ATP Assay Reagent of “Cells” (manufactured by Toyo B-Net Co., Ltd.) and GloMa 96 Microplate Luminometer (manufactured by Promega K.K.). Hep3B cells cultured in the absence of the compound (DMSO added [1%]) (“DMSO” of FIGS. 6 to 8) were used as a negative control. Hep3B cells cultured in the presence of HIF activators (FG-4592 [10 μM], DMOG [10 μM], 3,4-DHB [10 μM], and ciclopirox[10 μM]) (“FG”, “DMOG”, “34-DHB”, and “Ciclo”, respectively, of FIGS. 6 to 8) and Hep3B cells cultured in the presence of a transcriptional repressor GATA-specific inhibitor of erythropoietin (K7174 [10 μM]) (“K7174” of FIGS. 6 to 8) were used as positive controls.
Compound,concentration of erythropoietin in the Hep3B cells [1],increase of ATP concentration in cells relative to the normal level [2] [times the normal level]
"O=C(CC(C(=O)O)c1c[nH]c2ccccc12)c1ccccc1 (stereo not shown) [compound #20, 4-Phenyl-2-(1H-indol-3-yl)-4-oxo-butanoic acid]",increase the concentration of erythropoietin,
"CCCCCCn1cc(CC(=O)O)c2ccccc21 [compound #30, N-Hexyl-3-indoleacetic acid]",,≥ 1.5
"CCCCn1cc(CC(=O)O)c2ccccc21 [compound #29, N-Butyl-3-indoleacetic acid]",,≥ 1.5
"CC(C)(C)OC(=O)NCCCCC(C(=O)O)c1c[nH]c2ccccc12 (stereo not drawn) [compound #15, α-(N-tert-Butoxycarbonyl-4-amino-1-butyl)-3-indoleacetic acid]",increase the concentration of erythropoietin,
"CCCC(C)CC(C(=O)O)c1c[nH]c2ccccc12 (stereo not drawn) [compound #19, α-(2-Methyl-1-pentyl)-3-indoleacetic acid]",increase the concentration of erythropoietin,
"CC(C)(C)OC(=O)NCCOCCC(C(=O)O)c1c[nH]c2ccccc12 (stereo not drawn) [compound #14, α-[2-(N-tert-Butoxycarbonyl-2-aminoethoxy)-1-ethyl]-3-indoleacetic acid]",increase the concentration of erythropoietin,
"CCCOc1ccc2[nH]cc(CC(=O)O)c2c1 [compound #38, 5-(1-Propoxy)-3-indoleacetic acid]",,≥ 1.5
"O=C(CC(C(=O)O)c1c[nH]c2ccccc12)c1ccc(F)cc1 (stereo not shown) [compound #4, 4-(4-Fluorophenyl)-2-(1H-indol-3-yl)-4-oxo-butanoic acid]",increase the concentration of erythropoietin,
"CCC(C)CCC(C(=O)O)c1c[nH]c2ccccc12 (stereo not drawn) [compound #18, α-(3-Methyl-1-pentyl)-3-indoleacetic acid]",increase the concentration of erythropoietin,
"O=C(CC(C(=O)O)c1c[nH]c2ccccc12)c1ccc(Cl)cc1 (stereo not shown) [compound #2, 4-(4-Chlorophenyl)-2-(1H-indol-3-yl)-4-oxo-butanoic acid]",increase the concentration of erythropoietin,
"CC(C)(C)OC(=O)NCCCCCCC(C)(C(=O)O)c1c[nH]c2ccccc12 (stereo not drawn) [compound #13, α-(N-tert-Butoxycarbonyl-6-amino-1-hexyl)-α-methyl-3-indoleacetic acid]",increase the concentration of erythropoietin,
"CCC(CC)CC(C(=O)O)c1c[nH]c2ccccc12 (stereo not drawn) [compound #17, α-(2-Ethyl-1-butyl)-3-indoleacetic acid]",increase the concentration of erythropoietin,
"CCn1cc(CC(=O)O)c2ccccc21 [compound #27, N-Ethyl-3-indoleacetic acid]",,≥ 1.5
